Test [1] deals with HCK Y501F mutant, C1-fused (UniProt P08631). In words: split reporter; Gaussia princeps luciferase complementation assay in human HEK293T cells; Gluc2 at the N terminus of SKAP1 or SKAP2 (N2), Gluc1 at the N terminus (N1) or C terminus (C1) of the SRC kinase; 100 ng plasmid pair, PEI; luminescence read in lysate one day later; normalized luminescence ratio (NLR), given relative to wild type or to SKAP2.

The chains behind the UniProt entries cited, without tags or fusion partners. Where a name states a change or a piece, a line headed by the entry shows the natural chain unless it says otherwise. A line that says so, or that is headed by a name, gives the form on record, which may keep a tag or linker.
HCK Y501F mutant, C1-fused (P08631, form named): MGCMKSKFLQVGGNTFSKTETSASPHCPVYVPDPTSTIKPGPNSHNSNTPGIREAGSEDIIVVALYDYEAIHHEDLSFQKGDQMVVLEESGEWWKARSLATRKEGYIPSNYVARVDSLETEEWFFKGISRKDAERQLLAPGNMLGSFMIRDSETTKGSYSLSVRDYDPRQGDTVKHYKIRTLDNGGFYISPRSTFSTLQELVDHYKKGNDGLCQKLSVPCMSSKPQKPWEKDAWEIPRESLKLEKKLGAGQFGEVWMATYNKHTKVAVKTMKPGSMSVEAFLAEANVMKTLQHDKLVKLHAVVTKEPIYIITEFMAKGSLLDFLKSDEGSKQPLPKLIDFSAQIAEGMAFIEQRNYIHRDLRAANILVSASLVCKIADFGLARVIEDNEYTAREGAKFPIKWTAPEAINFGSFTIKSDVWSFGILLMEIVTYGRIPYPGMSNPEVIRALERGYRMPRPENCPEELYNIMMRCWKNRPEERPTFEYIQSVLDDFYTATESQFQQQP
UniProt P06239: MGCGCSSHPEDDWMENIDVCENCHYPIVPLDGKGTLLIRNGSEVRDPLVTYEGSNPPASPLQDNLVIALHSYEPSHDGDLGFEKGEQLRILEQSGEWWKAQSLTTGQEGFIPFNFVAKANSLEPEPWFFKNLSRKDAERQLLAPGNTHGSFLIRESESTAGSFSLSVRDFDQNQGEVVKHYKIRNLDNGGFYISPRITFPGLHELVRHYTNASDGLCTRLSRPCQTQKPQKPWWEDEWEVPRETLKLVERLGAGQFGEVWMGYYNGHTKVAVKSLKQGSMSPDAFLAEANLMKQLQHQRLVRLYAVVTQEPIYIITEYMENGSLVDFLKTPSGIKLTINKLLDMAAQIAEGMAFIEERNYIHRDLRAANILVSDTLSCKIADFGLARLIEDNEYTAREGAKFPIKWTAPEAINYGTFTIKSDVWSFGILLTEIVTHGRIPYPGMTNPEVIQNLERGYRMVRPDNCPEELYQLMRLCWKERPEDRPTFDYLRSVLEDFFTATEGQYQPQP
UniProt O75563: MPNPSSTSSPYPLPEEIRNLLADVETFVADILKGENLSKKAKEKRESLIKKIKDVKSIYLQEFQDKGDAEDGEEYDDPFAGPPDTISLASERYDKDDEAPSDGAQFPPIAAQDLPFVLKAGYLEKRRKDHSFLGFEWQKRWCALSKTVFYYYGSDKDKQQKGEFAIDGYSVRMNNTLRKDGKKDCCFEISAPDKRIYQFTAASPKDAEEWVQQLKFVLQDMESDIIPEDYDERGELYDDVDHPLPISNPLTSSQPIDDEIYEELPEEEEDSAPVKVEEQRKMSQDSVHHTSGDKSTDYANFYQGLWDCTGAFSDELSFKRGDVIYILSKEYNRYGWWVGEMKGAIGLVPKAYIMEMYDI
UniProt Q86WV1: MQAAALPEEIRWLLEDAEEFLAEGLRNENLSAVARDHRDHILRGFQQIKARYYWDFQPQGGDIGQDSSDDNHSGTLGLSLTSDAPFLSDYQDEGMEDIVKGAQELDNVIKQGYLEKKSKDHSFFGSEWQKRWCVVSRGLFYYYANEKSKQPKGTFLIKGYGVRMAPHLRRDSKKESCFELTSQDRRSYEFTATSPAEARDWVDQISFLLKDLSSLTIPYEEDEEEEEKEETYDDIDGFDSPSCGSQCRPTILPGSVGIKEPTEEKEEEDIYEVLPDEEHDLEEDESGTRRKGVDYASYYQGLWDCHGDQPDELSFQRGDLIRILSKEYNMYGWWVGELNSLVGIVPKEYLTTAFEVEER

Test [2] addresses LCK R154A mutant, N1-fused (UniProt P06239). Described as above.

No constants are given. Whether binding was seen depends on the method and setting. Binding seen in cells or lysates may run through a third protein. Some binding calls cover weakened binding; strength is not graded here.

As for “SRC kinase associated phosphoprotein 2 (SKAP2), wild type, N2-fused (from UniProt O75563 1-359)”, the binding result in test [1] and in test [2] was “binds” each time.

Take “SRC kinase associated phosphoprotein 1 (SKAP1), wild type, N2-fused (from UniProt Q86WV1 1-359)”: the binding entry in test [1] and in test [2] was “binds” in each case.

For the origin of these results see PMC10939263.
